Values of other authors as cited in patent US20130028937A1 (LABORATORIOS DEL DR. ESTEVE, S.A., priority 2009, published 2013).

Conditions: cited from earlier work

Cc1ccc(-c2cc(C(F)(F)F)nn2-c2ccc(S(N)(=O)=O)cc2)cc1 [Celecoxib, 4-[5-(4-methylphenyl)-3-(trifluoromethyl)pyrazol-1-yl]benzenesulfonamide]
solubility in water: only slightly soluble
